Experimental data as given in publication PMC9421128.

Experiments:
Assay in all cases: co-IP
[1] = target: FLAG-tagged HMPV M2-2 finer Δ3 deletion mutant Δ3-10 (human metapneumovirus strain Jpn03-1)
[2] = target: FLAG-tagged HMPV M2-2 finer Δ3 deletion mutant Δ3-5 (human metapneumovirus strain Jpn03-1)
[3] = target: FLAG-tagged HMPV M2-2 finer Δ3 deletion mutant Δ3-9 (human metapneumovirus strain Jpn03-1)

Measured: binding

B1: V5-tagged RIG-I CARD (V5-RIG-I CARD), expressed in HEK293T (domain or fragment, UniProt O95786 1-283)
chain: MTTEQRRSLQAFQDYIRKTLDPTYILSYMAPWFREEEVQYIQAEKNNKGPMEAATLFLKFLLELQEEGWFRGFLDALDHAGYSGLYEAIESWDFKKIEKLEEYRLLLKRLQPEFKTRIIPTDIISDLSECLINQECEEILQICSTKGMMAGAEKLVECLLRSDKENWPKTLKLALEKERNKFSELWIVEKGIKDVETEDLEDKMETSDIQIFYQEDPECQNLSENSCPPSEVSDTNLYSPFKPRNYQLELALPAMKGKNTIICAPTGCGKTFVSLLICEHHLK
no binding: all assays above

These are yes or no findings as the source states them, for the method shown. Binding seen in cells or lysates may run through a third protein. Sequences can lack the tags named with a protein.
